This note sets out measurements from article PMC13040627.

Results are given in words; binding and its absence hold for the method and conditions named.

Assay [1] concerns the target recombinant Fel d 4 produced in E. coli (E_rFel d 4) (cat (Felis domesticus)) (UniProt Q5VFH6). As to the kind of experiment: SEC; analytical size-exclusion chromatography recorded at 280 nm, superimposed to a gel filtration standard; both purified.
Assay [2] concerns the target recombinant Fel d 4 produced in Expi293F mammalian cells (M_rFel d 4) (cat (Felis domesticus)) (UniProt Q5VFH6). Described as above.

B1: recombinant Fel d 4 produced in E. coli (E_rFel d 4) (protein, UniProt Q5VFH6 16-186)
chain: HEEENVVRSNIDISKISGEWYSILLASDVKEKIEENGSMRVFVEHIKALDNSSLSFVFHTKENGKCTEIFLVADKTKDGVYTVVYDGYNVFSIVETVYDEYILLHLLNFDKTRPFQLVEFYAREPDVSQKLKEKFVKYCQEHGIVNILDLTEVDRCLQARGSEVAQDSSVE
modifications: N-formylmethionine (from the intact mass of the hexa-histidine tagged protein)
B1: the binding entry in assay [1] was “no binding”.

B2: recombinant Fel d 4 produced in Expi293F mammalian cells (M_rFel d 4) (protein, UniProt Q5VFH6 16-186)
chain: B1 chain
modifications: N-glycan at N51 (at least 7 glycoforms)
In the case of B2, the binding entry in assay [2] was “no binding”.
